Assay results reported in patent US20220031857A1.
No constants are given. Whether binding was seen depends on the method and setting. Some entries that bind do so weakly or less than the wild type.

The chains behind the UniProt entries cited, without tags or fusion partners. Residues count along the entry.
UniProt Q62351, residues 89-763: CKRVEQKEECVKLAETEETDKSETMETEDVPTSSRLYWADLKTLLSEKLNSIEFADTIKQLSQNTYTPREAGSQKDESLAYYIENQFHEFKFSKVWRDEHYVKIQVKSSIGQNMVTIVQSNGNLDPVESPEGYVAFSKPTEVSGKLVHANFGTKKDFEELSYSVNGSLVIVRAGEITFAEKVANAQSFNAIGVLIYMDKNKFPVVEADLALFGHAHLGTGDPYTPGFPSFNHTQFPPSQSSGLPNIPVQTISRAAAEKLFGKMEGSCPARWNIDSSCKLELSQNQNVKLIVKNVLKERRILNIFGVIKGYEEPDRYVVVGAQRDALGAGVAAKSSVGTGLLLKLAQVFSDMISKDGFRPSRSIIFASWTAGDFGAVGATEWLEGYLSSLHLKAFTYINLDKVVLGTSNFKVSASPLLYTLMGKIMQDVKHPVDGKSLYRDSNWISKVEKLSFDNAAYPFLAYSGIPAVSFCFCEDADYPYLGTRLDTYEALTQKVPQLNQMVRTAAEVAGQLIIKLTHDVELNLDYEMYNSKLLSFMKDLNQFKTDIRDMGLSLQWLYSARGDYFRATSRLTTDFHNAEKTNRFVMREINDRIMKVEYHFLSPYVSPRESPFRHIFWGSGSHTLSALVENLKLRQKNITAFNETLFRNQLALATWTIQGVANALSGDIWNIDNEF

Columns and labels:
[1] = target: recombinant human TfR1 (transferrin receptor 1) (human) (UniProt P02786); assay: phage ELISA
[2] = target: recombinant mouse TfR1 (transferrin receptor 1) (mouse) (UniProt Q62351); assay: phage ELISA

B1: SEQ ID NO 46 (VNAR clone displayed on phage) (VNAR)
VNAR: ARVDQTPRSVTKETGESLTINCVLRDASYALGSTCWYRKKSGSTNEESISKGGRYVETVNSGSKSFSLRINDLTVEDGGTYRCGVCSDYGLQTTGQQAACGDGTAVTVNA
For B1, the binding [1] was “binds” and the binding [2] was “binds”.
